Experimental data: patent US9657260B2, “Method and system for continous monitoring of toxicity” (Yissum Research Development Company of The Hebrew …, priority 2014, dated 2017)
At least one structure is not confirmed: it was looked up by name or label, or the drawing left a doubt.

System: HepG2/C3A cells
Assay: Electrochemical glucose and lactate sensing at the bioreactor outflow
Format: cell-based, human
Settings: 50 μM
Description: Cells respond to mitochondrial dysfunction by adapting their metabolic response to circumvent oxidative phosphorylation. To track this response electrochemical sensors for glucose and lactate were attached to bioreactor outflow in a PMMA housing with 16 μl dead volume (FIG. 5 A-C). Samples were collected sequentially using a computer controlled microfluidic switchboard (FIG. 5D). Micromechanical valves (FIG. 5E) introduced a sequence of (1) washing buffer, (2) air bubble interface, and (3) a bioreactor sample every hour. Proof of principle was shown with 50 μM rotenone, a direct mitochondrial C1 inhibitor, causing an 80% loss in respiration (FIG. 5F). […] Importantly, the system is sensitive enough to detect minute signals and off target effects. […] Lactate over glucose ratio increases slightly from 1.2 to 1.8, showing a shift toward glycolysis (FIG. 5I).

**Q.** With `Cc1c(C)c2c(c(C)c1O)CCC(C)(COc1ccc(CC3SC(=O)NC3=O)cc1)O2` (centres unmarked) [Troglitazone] as the molecule, how does the glucose uptake read?
**A.** remained constant

**Q.** What about the lactate production of the same molecule?
**A.** small increase in lactate production
